In PubChem BioAssay AID504726 (Broad Institute, 2011):
Inconclusive means that the source gave no clear call. Such entries were picked first, then a sample of the others. Active and inactive are the calls of the source.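 Rule for the calls: active = fitted half-maximal concentration for a cytotoxic signal drop no higher than ten times the top valid dose tested; inconclusive = flat curve between -70 and -30 percent, or an unreliable fit; inactive = flat within 30 percent, signal rise, or potency beyond limit.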

Assay: HeLa cell cytotoxicity, dose response, cytotoxicity control, 24 h, cherry-picked samples (AID 504726);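 note: 0% = DMSO neutral controls and -100% = mitoxantrone positive controls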
Details: HeLa viability, CellTiter-Glo ATP luminescence; at 35 µM (top of the series)

Row | SMILES | activity change, negative = cytotoxicity
1 | CC(C(=O)O)N1C(=O)/C(=C/C=C/c2ccco2)SC1=S (centres undefined) | inactive: -13.5%
2 | COc1ccc(NC(=O)CN(C)CC(=O)Nc2ccc(N3CCOCC3)cc2)c([N+](=O)[O-])c1 | inconclusive: -33.3%
3 | COc1ccc(CCNC(=O)CCCNC(=O)Cn2cnc3sc(C)c(C)c3c2=O)cc1OC | inconclusive: -31.3%
4 | CCOC(=O)c1ccccc1Nc1cc(C)nc2nc(C)nn12 | inconclusive: -35.9%
